Test results as given in patent US11260115B1, “Peptides and combination of peptides for use in immunotherapy against CLL and other cancers” (immatics biotechnologies GmbH, priority 2015, dated 2022).

Test system: CLL samples compared to a panel of normal tissues
Experiment: Identification and label-free relative LC-MS quantitation of HLA-presented peptides (presentation profile / presentation score)
Set-up: species or system human; key: very highly over-presented on tumors compared to a panel of normal tissues (+++); highly over-presented on tumors compared to a panel of normal tissues (++); over-presented on tumors compared to a panel of normal tissues (+)
Conditions: over-presentation on tumors (CLL) compared to a panel of normal tissues; label-free LC-MS quantitation

Substance	Peptide Presentation (presentation score)
62 (GIIDGSPRL; listed as Homo sapiens) [compound 62]	+
153 (SLLAELHVL; listed as Homo sapiens) [compound 153]	++
